Measurements reported in paper doi:10.1101/2024.01.05.574312.
Results are given in words; binding and its absence hold for the method and conditions named. In cells and extracts the contact can be indirect. Some results given as binding are weak or reduced against the parent protein; the word gives no strength. Where a sequence is shown, tags or fusion partners need not be part of it.

Target: T1, Ubp10 (in epitope-tagged backgrounds, ChIP-CoIP; also as found in the Cdc9 proteomic analysis) (S. cerevisiae) (UniProt P53874)
T1 sequence: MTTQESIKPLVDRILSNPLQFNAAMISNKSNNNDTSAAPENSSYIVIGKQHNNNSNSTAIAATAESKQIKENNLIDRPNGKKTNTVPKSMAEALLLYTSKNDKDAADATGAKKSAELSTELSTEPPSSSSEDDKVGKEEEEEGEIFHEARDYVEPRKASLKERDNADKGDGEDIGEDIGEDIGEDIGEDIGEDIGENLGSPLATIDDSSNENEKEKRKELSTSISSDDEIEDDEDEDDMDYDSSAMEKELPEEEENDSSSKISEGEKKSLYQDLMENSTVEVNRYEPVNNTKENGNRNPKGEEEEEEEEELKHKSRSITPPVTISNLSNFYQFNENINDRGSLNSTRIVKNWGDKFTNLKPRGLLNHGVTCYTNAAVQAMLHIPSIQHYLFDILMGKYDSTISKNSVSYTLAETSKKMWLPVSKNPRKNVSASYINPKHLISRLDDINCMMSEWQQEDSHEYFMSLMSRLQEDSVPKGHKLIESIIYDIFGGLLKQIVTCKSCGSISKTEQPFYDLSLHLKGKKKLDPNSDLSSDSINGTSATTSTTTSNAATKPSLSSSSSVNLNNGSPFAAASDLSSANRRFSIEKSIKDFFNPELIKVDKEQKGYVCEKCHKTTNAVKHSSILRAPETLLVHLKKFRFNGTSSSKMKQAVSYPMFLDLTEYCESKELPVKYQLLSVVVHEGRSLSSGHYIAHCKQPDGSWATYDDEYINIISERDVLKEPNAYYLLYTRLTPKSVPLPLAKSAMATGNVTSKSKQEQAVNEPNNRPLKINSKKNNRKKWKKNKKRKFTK
Assay: co-IP

binding: binds
B1: Pol3, catalytic subunit of Polδ (in an epitope-tagged background, ChIP-CoIP) (enzyme, UniProt P15436 1-1097)
chain: MSEKRSLPMVDVKIDDEDTPQLEKKIKRQSIDHGVGSEPVSTIEIIPSDSFRKYNSQGFKAKDTDLMGTQLESTFEQELSQMEHDMADQEEHDLSSFERKKLPTDFDPSLYDISFQQIDAEQSVLNGIKDENTSTVVRFFGVTSEGHSVLCNVTGFKNYLYVPAPNSSDANDQEQINKFVHYLNETFDHAIDSIEVVSKQSIWGYSGDTKLPFWKIYVTYPHMVNKLRTAFERGHLSFNSWFSNGTTTYDNIAYTLRLMVDCGIVGMSWITLPKGKYSMIEPNNRVSSCQLEVSINYRNLIAHPAEGDWSHTAPLRIMSFDIECAGRIGVFPEPEYDPVIQIANVVSIAGAKKPFIRNVFTLNTCSPITGSMIFSHATEEEMLSNWRNFIIKVDPDVIIGYNTTNFDIPYLLNRAKALKVNDFPYFGRLKTVKQEIKESVFSSKAYGTRETKNVNIDGRLQLDLLQFIQREYKLRSYTLNAVSAHFLGEQKEDVHYSIISDLQNGDSETRRRLAVYCLKDAYLPLRLMEKLMALVNYTEMARVTGVPFSYLLARGQQIKVVSQLFRKCLEIDTVIPNMQSQASDDQYEGATVIEPIRGYYDVPIATLDFNSLYPSIMMAHNLCYTTLCNKATVERLNLKIDEDYVITPNGDYFVTTKRRRGILPIILDELISARKRAKKDLRDEKDPFKRDVLNGRQLALKISANSVYGFTGATVGKLPCLAISSSVTAYGRTMILKTKTAVQEKYCIKNGYKHDAVVVYGDTDSVMVKFGTTDLKEAMDLGTEAAKYVSTLFKHPINLEFEKAYFPYLLINKKRYAGLFWTNPDKFDKLDQKGLASVRRDSCSLVSIVMNKVLKKILIERNVDGALAFVRETINDILHNRVDISKLIISKTLAPNYTNPQPHAVLAERMKRREGVGPNVGDRVDYVIIGGNDKLYNRAEDPLFVLENNIQVDSRYYLTNQLQNPIISIVAPIIGDKQANGMFVVKSIKINTGSQKGGLMSFIKKVEACKSCKGPLRKGEGPLCSNCLARSGELYIKALYDVRDLEEKYSRLWTQCQRCAGNLHSEVLCSNKNCDIFYMRVKVKKELQEKVEQLSKW
